107 sequences from PubChem BioAssay AID1508600 (Functional Genomics Laboratory (NCATS/FGL), 2020) can be followed below.

Among all 53,000 sequences or so, about 3,700 (7%) were called active.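 Rule for the calls: active = gene knockdowns whose robust z-score for IL-1 alpha signal is at least 2 or at most -2, so actives lie on both sides; inactive = the rest.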 Some of the results follow.

This assay is described as follows: Components of the Cytosolic LPS Sensing Pathway: Gene Identification via Genome-wide siRNA Screen.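 Note: robust z of the log signal after scaling to non-targeting control siRNA wells of the plate.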 The conditions noted are these: RAW264.7 macrophages, IL-1a HTRF, actives lie on both sides, screened at 100 nM (by protocol), cells primed 5 h with Pam3CSK4 first. A digest of the protocol: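 RAW264.7 mouse macrophages reverse-transfected with single siRNAs (100 nM final) for 48h, primed with Pam3CSK4 for 5 hours, then transfected with LipidA for 24 hour. Supernatant IL-1a read by HTRF; values normalized to negative-control median, log-transformed robust z-scores.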
Background: Time-resolved FRET reads energy transfer from a long-lived donor to a nearby acceptor.
GGAGAUCAAUGAGAAGAUCTT against Akap3: the z-score was inactive: 0.652.

For the sequence GGGACCUACUUUGUGGCUCTT against Tmem72, the z-score was inactive: -0.642.

GCUGAGAACACAACAGCUUTT against Ap5s1: the z-score is inactive: -1.12.

With GGGCAAAACAGAAAUUCAATT against Sypl, the z-score is inactive: 0.449.

With GUGUUUUAGUGCGAGUCCUTT against Klrb1a, the z-score was inactive: 0.309.

With GGUCUCCCUUUUCAAUCGCTT against Rbpjl, the z-score is inactive: -0.613.

On to CCCUGGAGUAAACUCAAAUTT against Onecut2, for which the z-score is inactive: 1.15.

Regarding GGACCUCAGAGAAGUGCAGTT against Ssbp4, the z-score was inactive: -0.308.

On to GGCUUAAUUGUUUGUGUGATT against Slc18a2, for which the z-score is inactive: -0.0175.

With GGGAAAAGUAUCCUCUGUUTT against Olfr877, the z-score is inactive: -0.968.

As for GGUGUGAUGAAAGUUUUAGTT against Rell1, the z-score was inactive: 1.05.

On to GGACAUCAACGACAACAAUTT against Pcdhgc3, for which the z-score was inactive: 0.35.

For the sequence CGGUCACAUCUCUACUGCATT against Tas2r138, the z-score is inactive: -0.833.

As to GGCGCAAGCAAAGAAACAUTT against Pbx3, the z-score is inactive: 0.00735.

Take GGGAUUGACAUUGGAUGGGTT against Gabarap: the z-score was inactive: -0.67.

In the case of GGAAAUCAGAAUUCCAAAATT against Cntn6, the z-score was inactive: 1.56.

GGGAAGGGUGAUGCAGAUCTT against Prkcq: the z-score is inactive: -1.06.

As to GCCCAGUACGAAGAAAUCATT against Dkk4, the z-score was inactive: -0.346.

GCGACCAUGACAAACACAATT against Brd7: the z-score was inactive: -0.651.

Consider CCAGUAGGACUAGCAACACTT against Gast, for which the z-score was inactive: -0.275.

Regarding CGACUGUCAGAUUACAACATT against Ubl4a, the z-score was inactive: 0.0955.

For the sequence CCGCUGGUGUGAUCACAAUTT against Slc5a2, the z-score is inactive: 0.0431.

As to GGCUGGAAAGGAGGAUACATT against Fbxl19, the z-score was inactive: -0.747.

On to CCUAGACAAUACUUGCCUGTT against Gpr180, for which the z-score is inactive: 0.873.

On to GGAUCACUGCUUUUACCACTT against Adam19, for which the z-score is inactive: 0.567.

Regarding GGAUCUUGAAGCCAAAUACTT against Ccdc127, the z-score was active: 2.56.

For CCGUGUUUAAAGACAGUCCTT against Sun2, the z-score is inactive: -0.27.

With GGAGAACUGUGUACGAUGGTT against Fam102a, the z-score was inactive: -0.257.

Take “CCACUGUAAAAGAUUUGGCTT against A730045E13Rik”: the z-score is inactive: 0.234.

On to CUCCUAUGGAACAUCUCCATT against Ndufs6, for which the z-score is inactive: 1.

On to GCAAGGCGCAUAAUGGGAGTT against Alox5ap, for which the z-score was inactive: -1.41.

In the case of GGCCAGUCCAAAGACCAUCTT against Hsd3b7, the z-score is inactive: 1.95.

As to GGGAGUCUACACAUUAUAUTT against Ceacam10, the z-score is inactive: -0.484.

Regarding GGAUGAUCAAGACAAGCAGTT against Nobox, the z-score is inactive: -0.763.

GGCUGGAAGAUGACCUGCATT against Tnni3k: the z-score is inactive: 1.82.

On to GCAACAAUUGAGCAAUUCATT against Bag1, for which the z-score is inactive: -1.21.

As to GCAGCUUAGCCCAAAGAUCTT against Gstm6, the z-score is inactive: -0.62.

For the sequence GCCAGAAGUGAAAAUCGAATT against Fkbp14, the z-score is inactive: 0.509.

Regarding CGGAAACCUUGCACAAUAUTT against Blcap, the z-score is inactive: 0.35.

Consider CCACCACAGCUGAAGUCAGTT against Fen1, for which the z-score was inactive: -1.08.

For GGAGGAUAAGGAUGUCUCATT against Cfap69, the z-score is inactive: -1.14.

Take GGCUAAAUGAGCAAAAUCUTT against Bptf: the z-score is inactive: -0.907.

In the case of GCAGCGAAAGGAUUGACAATT against Elovl5, the z-score was inactive: -0.395.

For GCUUCCUGUGUCUAUUUAUTT against Tyw3, the z-score was inactive: 0.353.

As to GGAAGAGUUUAUGAUCCUCTT against Esrrb, the z-score is inactive: 0.0523.

Turning to CCAAUCAGACACCUACAAGTT against Myo1f, the z-score was inactive: 1.19.

As for GGAAAGUUUGCACUGUAAATT against Tiam2, the z-score was inactive: -0.207.

In the case of GGACUGUUUGGAUUGCAUATT against Dock7, the z-score is inactive: 0.891.

GCCUUUCUCGUUCCUAUAGTT against Plgrkt: the z-score is active: -2.42.

As to CGCAGAAAGAAAUAGCAAUTT against B2m, the z-score is inactive: -0.0651.

In the case of “CCCAUAUUCUACACAUUCUTT against Gadd45gip1”, the z-score is inactive: -0.246.

Regarding GGUGGUGUAAUAGCUAAGATT against Hspa12b, the z-score was inactive: 0.000794.

Take CCAAUGUGGAUGAAUCGAATT against Pdcd11: the z-score was inactive: 0.529.

Take GCCACAGUCCAAAUCUGCATT against Odr4: the z-score was inactive: -0.751.

For CCUGUCGUUCCUCCUUACATT against Sec11a, the z-score was inactive: -1.29.

As for GCCUCGAGGACAAAACAUCTT against Amacr, the z-score is inactive: -0.549.

For GGUCCUGGAAUCUCAAAAUTT against Entpd1, the z-score is inactive: -0.506.

With GCGAAACACAUAAUGAGUCTT against Ncaph, the z-score was inactive: -0.211.

Regarding UGCUGUGGUCACUCCCAUGTT against Olfr457, the z-score was active: -2.04.

Consider GCCAGUGAUUAGUGUUUAUTT against Vps37a, for which the z-score is inactive: 0.53.

On to GGUAUAUGGAACCAUGGGATT against Psmb9, for which the z-score is inactive: -0.565.

On to GGAGUGACUCCUACAAAAUTT against Ms4a4b, for which the z-score was active: -2.01.

Consider GGAUGUGCGGAAGUUCAAATT against Acap3, for which the z-score is inactive: 1.82.

In the case of GCAGCAAUAUAAGGACAGUTT against Grin2b, the z-score is inactive: 0.367.

On to GGAAUGUAUCCAGGACUUCTT against Brd4, for which the z-score is active: -2.46.

In the case of GGUCCAUUGGGAGUUUGAGTT against Slc2a6, the z-score was active: 3.14.

Regarding GGUGUUUGUUCGGAAGCUCTT against Pes1, the z-score is inactive: -0.345.

GGUACUUUAUAGGAACAGUTT against Zbtb41: the z-score is inactive: -0.973.

Take GGAAGUGCUACUUUCUGGGTT against Tmem178: the z-score is inactive: 1.74.

As for GGACUUACAGCUAAACAACTT against Qk, the z-score is inactive: 0.427.

As to GGAGCUGGAGAGAUGUUAGTT against Anapc16, the z-score was inactive: -0.104.

Regarding GGUUGCCUUUCUGUCGUUCTT against Olfr558, the z-score is inactive: -1.83.

On to CCACUUGAACCAUGUAUUUTT against Skint2, for which the z-score was inactive: 1.5.

In the case of GGACCUGACCAGAAGAGCUTT against Acot3, the z-score is inactive: -0.928.

With GCGCAGAUGGAUCCUAACATT against Tnfsf11, the z-score is inactive: -0.699.

Turning to GAUACAGAAUGUCUCAUCCTT against Olfr1128, the z-score was inactive: 0.307.

In the case of CCAGAAAUAAAAGACAUCGTT against Cox18, the z-score is inactive: 1.35.

In the case of CCUUACCCUGUUAUACAAGTT against Hirip3, the z-score is active: 2.69.

For the sequence GGCCUGUGAGUGUGACAAATT against Pla2g2c, the z-score is inactive: -1.32.

On to GGACGAUUCCCAGUUUCUGTT against Phf1, for which the z-score was inactive: 1.25.

As for GCACAUAUCACGCUACCUGTT against Lrrc75b, the z-score is inactive: -0.0605.

Take GGUUCACUCAACUCAACAATT against Spaca7: the z-score was inactive: -1.01.

Take GCCCAUUGUAUGACUGCCGTT against Gfra2: the z-score is active: 3.21.

Turning to “CCAGAAUUGAACUUCAAGUTT against 2610008E11Rik”, the z-score was inactive: -0.00302.

For GGUCUUACUCCAGUCUGCCTT against Rufy1, the z-score was inactive: 0.536.

As for CCUAGAACUUAAAUGGACATT against Ube2d2b, the z-score was inactive: 0.135.

For GGAGCUCAAAGACAAAGAATT against Ccdc178, the z-score was inactive: -1.85.

In the case of CGAUUUAUUGGAGGCGCACTT against Glrx2, the z-score is inactive: -0.632.

For CGAGGAGAAUUUGUAAUGATT against Etfrf1, the z-score is inactive: -0.554.

Take GGACUCUCAAUGAUGAAUATT against Map7d3: the z-score is inactive: 1.85.

GGUUGUAUCAGUGAAGACATT against Cyren: the z-score is inactive: 0.465.

With GGUGACCAAAAUGACUUGUTT against Slc39a3, the z-score was inactive: 0.0258.

For GCGUGGACAAACUCUAUGATT against Gramd1b, the z-score is inactive: -1.16.

CGGGAGGUGAAUAUCGAUUTT against Rgs8: the z-score was inactive: -0.282.

As to GGGAAUUUCGGCUGUUUUATT against Cts8, the z-score was inactive: 1.85.

As to CCAAUUGGGCACAUAGUCGTT against Ovgp1, the z-score was inactive: 0.19.

Turning to GGUGAUGGAGUACUUAUUGTT against Acadvl, the z-score was inactive: -0.258.

Turning to GGCAAAGAUCAAGACUGUGTT against Arid4a, the z-score was inactive: -1.74.

CGACUAAUAUGUCCCAGCUTT against Bend3: the z-score was inactive: -1.21.

Consider CGAUGAAAUCAUCACUAUCTT against Cyfip1, for which the z-score was inactive: 0.331.

In the case of GGGUCCUCUUUAAAAGGCUTT against Smc6, the z-score is inactive: -1.1.

Take GGCUAAUGGUGCGUACAGATT against Cyp4a10: the z-score is inactive: 0.418.

As for GGUGCAUAGCAUACCCUAGTT against Hlf, the z-score was inactive: -0.0656.

For GGAACUAUUACCAUUCUGUTT against Dkk3, the z-score was inactive: -0.045.

For the sequence GGGCACAUUCUCAAGACGUTT against Stx1b, the z-score is inactive: 0.22.

With GGUAUUUGCCAACCAAAACTT against Trerf1, the z-score is inactive: -0.415.

Take GCAUCACAGGCGAGUUUGUTT against Olfr11: the z-score was inactive: 0.431.
